Data as given in publication doi:10.1101/2024.10.27.620453.

Chains of the proteins cited; added tags and fusions are not shown. Residues count along the entry.
UniProt O75460, residues 19-977: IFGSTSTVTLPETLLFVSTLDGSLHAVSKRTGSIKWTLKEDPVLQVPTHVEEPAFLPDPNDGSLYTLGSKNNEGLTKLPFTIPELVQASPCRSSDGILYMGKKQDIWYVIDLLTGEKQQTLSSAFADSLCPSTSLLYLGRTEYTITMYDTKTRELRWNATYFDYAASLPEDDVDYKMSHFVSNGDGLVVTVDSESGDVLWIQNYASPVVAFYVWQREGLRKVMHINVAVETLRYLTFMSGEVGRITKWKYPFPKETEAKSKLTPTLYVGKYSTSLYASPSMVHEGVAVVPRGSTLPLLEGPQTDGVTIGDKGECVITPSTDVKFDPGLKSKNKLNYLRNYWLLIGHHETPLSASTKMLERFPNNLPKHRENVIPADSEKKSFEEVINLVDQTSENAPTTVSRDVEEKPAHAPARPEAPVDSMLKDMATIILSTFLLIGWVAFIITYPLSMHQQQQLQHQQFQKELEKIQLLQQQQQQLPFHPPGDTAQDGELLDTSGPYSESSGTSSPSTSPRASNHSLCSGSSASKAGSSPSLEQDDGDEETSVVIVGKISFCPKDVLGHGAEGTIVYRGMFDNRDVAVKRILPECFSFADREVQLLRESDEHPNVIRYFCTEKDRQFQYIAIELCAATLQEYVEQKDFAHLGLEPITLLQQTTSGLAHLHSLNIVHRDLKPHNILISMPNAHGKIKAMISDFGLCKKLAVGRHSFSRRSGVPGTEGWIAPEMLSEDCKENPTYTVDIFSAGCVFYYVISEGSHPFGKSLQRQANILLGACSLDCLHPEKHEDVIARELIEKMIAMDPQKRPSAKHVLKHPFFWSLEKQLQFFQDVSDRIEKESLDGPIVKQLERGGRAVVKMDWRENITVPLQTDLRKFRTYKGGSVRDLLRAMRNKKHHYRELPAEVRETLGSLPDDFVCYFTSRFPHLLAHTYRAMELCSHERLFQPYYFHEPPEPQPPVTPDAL
UniProt P53618: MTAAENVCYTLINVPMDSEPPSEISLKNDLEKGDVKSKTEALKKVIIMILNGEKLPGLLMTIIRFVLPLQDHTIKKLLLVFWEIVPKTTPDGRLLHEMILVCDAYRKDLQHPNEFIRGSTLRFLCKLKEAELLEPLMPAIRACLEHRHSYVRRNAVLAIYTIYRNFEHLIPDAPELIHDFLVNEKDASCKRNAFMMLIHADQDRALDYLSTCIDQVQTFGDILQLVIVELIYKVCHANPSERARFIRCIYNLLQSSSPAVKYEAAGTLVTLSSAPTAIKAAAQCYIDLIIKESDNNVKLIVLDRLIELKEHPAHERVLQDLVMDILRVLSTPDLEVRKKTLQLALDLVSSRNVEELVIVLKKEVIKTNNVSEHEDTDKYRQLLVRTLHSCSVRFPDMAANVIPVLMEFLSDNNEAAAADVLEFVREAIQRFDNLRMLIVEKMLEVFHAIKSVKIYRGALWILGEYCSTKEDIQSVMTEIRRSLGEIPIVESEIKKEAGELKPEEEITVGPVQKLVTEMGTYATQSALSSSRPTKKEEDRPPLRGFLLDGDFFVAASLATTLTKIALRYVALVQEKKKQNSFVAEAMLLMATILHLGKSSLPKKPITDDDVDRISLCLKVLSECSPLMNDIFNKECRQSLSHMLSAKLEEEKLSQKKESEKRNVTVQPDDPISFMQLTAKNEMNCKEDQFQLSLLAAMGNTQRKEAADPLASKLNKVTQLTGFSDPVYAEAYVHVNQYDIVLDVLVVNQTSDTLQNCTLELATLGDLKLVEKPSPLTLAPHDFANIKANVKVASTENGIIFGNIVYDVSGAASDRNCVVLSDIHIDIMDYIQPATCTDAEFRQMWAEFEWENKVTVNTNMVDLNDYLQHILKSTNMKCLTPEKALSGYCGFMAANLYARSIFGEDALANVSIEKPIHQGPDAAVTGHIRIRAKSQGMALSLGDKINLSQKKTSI
UniProt P21333: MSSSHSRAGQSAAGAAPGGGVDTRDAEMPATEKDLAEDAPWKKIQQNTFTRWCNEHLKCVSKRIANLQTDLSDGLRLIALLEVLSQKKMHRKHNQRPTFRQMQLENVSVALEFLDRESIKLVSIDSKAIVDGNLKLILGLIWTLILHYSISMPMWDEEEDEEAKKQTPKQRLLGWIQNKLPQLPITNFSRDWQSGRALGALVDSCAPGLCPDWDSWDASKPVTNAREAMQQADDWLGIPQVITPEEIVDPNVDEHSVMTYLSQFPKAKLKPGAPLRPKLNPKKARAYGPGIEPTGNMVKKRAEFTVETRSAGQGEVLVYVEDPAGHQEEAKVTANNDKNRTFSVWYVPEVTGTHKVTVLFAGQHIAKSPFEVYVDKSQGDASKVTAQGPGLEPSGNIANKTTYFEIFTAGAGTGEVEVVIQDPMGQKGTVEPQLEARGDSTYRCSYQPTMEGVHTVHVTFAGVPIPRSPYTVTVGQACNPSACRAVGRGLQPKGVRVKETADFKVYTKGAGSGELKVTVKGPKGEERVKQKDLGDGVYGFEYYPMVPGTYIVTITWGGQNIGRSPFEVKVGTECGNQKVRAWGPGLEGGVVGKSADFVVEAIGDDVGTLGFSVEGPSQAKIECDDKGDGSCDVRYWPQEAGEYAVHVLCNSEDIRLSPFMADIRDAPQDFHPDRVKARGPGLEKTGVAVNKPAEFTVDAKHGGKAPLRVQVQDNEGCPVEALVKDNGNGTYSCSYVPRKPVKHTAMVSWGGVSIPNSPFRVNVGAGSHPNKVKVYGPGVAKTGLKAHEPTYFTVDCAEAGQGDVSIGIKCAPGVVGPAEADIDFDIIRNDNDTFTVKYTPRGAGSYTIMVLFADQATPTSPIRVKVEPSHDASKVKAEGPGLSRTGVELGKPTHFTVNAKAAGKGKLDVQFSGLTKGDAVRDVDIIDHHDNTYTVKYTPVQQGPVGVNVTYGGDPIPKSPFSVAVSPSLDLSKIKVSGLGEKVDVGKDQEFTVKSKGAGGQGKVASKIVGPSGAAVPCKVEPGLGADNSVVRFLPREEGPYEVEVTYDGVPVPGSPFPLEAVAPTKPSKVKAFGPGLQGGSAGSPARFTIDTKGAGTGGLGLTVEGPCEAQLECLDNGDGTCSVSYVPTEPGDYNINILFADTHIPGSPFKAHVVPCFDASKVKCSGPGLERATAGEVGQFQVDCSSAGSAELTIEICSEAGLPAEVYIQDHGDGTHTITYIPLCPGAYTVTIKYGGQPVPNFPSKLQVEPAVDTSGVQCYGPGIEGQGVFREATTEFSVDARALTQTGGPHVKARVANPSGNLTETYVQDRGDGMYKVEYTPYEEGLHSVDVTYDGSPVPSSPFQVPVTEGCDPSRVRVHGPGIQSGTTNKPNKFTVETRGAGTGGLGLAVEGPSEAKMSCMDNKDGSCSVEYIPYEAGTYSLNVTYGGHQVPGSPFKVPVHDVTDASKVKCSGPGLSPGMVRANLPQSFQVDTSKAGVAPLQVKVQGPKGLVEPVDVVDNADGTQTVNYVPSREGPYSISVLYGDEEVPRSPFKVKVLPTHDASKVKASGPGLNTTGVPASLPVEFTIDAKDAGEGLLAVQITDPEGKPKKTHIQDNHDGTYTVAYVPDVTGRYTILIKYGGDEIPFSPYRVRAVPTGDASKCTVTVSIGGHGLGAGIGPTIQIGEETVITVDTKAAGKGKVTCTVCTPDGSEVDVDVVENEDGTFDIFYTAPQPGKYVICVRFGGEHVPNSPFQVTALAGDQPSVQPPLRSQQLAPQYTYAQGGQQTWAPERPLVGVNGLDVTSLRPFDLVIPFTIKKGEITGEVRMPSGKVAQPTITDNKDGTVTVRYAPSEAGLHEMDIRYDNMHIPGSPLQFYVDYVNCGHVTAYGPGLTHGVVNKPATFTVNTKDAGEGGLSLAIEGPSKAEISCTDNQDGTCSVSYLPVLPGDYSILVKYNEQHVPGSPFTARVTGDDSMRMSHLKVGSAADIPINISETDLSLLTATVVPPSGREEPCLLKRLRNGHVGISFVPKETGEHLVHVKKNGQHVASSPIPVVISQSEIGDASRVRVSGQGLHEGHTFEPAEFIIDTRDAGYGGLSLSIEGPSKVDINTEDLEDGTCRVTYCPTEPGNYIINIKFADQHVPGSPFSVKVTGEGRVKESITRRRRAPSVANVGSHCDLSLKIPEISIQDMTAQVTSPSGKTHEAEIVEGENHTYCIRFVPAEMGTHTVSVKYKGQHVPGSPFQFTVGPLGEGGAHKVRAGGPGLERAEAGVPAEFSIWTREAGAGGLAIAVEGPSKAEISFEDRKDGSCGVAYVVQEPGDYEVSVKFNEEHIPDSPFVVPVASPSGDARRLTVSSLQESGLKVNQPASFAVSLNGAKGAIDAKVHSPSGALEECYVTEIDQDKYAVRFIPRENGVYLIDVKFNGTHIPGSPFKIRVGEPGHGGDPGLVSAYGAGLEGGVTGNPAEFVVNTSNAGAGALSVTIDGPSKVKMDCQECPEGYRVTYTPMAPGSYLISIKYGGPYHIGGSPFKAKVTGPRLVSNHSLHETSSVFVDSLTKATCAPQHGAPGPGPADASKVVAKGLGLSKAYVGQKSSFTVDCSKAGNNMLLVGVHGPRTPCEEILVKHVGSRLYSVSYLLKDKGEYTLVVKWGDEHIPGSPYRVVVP
UniProt Q13283: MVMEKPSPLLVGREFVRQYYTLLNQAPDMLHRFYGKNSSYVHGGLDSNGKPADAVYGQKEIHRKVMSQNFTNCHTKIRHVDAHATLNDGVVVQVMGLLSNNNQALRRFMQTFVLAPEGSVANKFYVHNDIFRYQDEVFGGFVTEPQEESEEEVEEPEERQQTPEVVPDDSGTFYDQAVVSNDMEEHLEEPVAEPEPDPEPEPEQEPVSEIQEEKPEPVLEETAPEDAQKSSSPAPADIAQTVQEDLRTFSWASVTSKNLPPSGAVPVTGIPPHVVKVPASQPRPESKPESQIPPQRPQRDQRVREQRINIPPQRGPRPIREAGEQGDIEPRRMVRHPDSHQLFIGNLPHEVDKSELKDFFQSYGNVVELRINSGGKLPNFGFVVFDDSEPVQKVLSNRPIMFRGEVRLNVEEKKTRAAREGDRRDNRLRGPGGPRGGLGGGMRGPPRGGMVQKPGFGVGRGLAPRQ
UniProt P14625, residues 22-803: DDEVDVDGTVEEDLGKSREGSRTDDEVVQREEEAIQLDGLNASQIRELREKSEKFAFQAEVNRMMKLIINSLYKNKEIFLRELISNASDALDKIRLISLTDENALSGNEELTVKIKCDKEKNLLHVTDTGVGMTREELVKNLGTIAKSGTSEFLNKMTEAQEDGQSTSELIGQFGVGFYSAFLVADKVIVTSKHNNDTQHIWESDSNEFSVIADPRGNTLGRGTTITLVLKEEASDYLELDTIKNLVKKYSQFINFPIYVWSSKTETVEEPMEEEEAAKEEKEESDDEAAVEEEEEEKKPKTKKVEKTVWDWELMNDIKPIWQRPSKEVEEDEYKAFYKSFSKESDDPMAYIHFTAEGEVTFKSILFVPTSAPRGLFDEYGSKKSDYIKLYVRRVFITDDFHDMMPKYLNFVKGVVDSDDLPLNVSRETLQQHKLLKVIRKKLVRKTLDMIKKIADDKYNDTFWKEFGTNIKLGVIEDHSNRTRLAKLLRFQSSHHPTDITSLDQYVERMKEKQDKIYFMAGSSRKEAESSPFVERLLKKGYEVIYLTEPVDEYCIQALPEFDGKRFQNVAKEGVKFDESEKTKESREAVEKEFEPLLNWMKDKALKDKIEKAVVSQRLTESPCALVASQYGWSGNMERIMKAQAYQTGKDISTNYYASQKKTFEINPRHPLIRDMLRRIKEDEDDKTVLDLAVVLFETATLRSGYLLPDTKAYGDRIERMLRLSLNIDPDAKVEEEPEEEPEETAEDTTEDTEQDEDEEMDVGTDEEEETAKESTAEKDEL
UniProt Q13586, residues 23-685: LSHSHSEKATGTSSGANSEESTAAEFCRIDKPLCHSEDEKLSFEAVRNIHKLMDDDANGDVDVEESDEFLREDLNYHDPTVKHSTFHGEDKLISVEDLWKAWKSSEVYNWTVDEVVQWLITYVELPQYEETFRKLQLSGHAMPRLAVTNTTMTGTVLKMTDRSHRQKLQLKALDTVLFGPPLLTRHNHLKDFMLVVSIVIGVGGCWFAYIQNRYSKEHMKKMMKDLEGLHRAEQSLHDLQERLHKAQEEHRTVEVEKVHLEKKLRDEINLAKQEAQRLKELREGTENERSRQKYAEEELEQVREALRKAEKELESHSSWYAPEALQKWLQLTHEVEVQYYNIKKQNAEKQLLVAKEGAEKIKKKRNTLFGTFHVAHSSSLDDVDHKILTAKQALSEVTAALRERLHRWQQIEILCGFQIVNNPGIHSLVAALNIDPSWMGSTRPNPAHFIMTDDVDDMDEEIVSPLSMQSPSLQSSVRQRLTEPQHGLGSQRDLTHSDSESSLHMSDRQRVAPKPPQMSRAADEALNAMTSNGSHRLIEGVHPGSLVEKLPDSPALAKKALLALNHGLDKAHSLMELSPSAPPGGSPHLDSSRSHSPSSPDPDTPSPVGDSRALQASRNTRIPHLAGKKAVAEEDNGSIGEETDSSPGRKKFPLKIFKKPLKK

B1: PTPN1 (enzyme, UniProt P18031 1-435)
chain: MEMEKEFEQIDKSGSWAAIYQDIRHEASDFPCRVAKLPKNKNRNRYRDVSPFDHSRIKLHQEDNDYINASLIKMEEAQRSYILTQGPLPNTCGHFWEMVWEQKSRGVVMLNRVMEKGSLKCAQYWPQKEEKEMIFEDTNLKLTLISEDIKSYYTVRQLELENLTTQETREILHFHYTTWPDFGVPESPASFLNFLFKVRESGSLSPEHGPVVVHCSAGIGRSGTFCLADTCLLLMDKRKDPSSVDIKKVLLEMRKFRMGLIQTADQLRFSYLAVIEGAKFIMGDSSVQDQWKELSHEDLEPPPEHIPPPPRPPKRILEPHNGKCREFFPNHQWVKEETQEDKDCPIKEEKGSPLNAAPYGIESMSQDTEVRSRVVGGSLRGAQAASPAKGEPSLPEKDEDHALSYWKPFLVNMCVATVLTAGAYLCYRFLFNSNT
B2: UPF1 (protein, UniProt Q92900 1-1129)
chain: MSVEAYGPSSQTLTFLDTEEAELLGADTQGSEFEFTDFTLPSQTQTPPGGPGGPGGGGAGGPGGAGAGAAAGQLDAQVGPEGILQNGAVDDSVAKTSQLLAELNFEEDEEDTYYTKDLPIHACSYCGIHDPACVVYCNTSKKWFCNGRGNTSGSHIVNHLVRAKCKEVTLHKDGPLGETVLECYNCGCRNVFLLGFIPAKADSVVVLLCRQPCASQSSLKDINWDSSQWQPLIQDRCFLSWLVKIPSEQEQLRARQITAQQINKLEELWKENPSATLEDLEKPGVDEEPQHVLLRYEDAYQYQNIFGPLVKLEADYDKKLKESQTQDNITVRWDLGLNKKRIAYFTLPKTDSGNEDLVIIWLRDMRLMQGDEICLRYKGDLAPLWKGIGHVIKVPDNYGDEIAIELRSSVGAPVEVTHNFQVDFVWKSTSFDRMQSALKTFAVDETSVSGYIYHKLLGHEVEDVIIKCQLPKRFTAQGLPDLNHSQVYAVKTVLQRPLSLIQGPPGTGKTVTSATIVYHLARQGNGPVLVCAPSNIAVDQLTEKIHQTGLKVVRLCAKSREAIDSPVSFLALHNQIRNMDSMPELQKLQQLKDETGELSSADEKRYRALKRTAERELLMNADVICCTCVGAGDPRLAKMQFRSILIDESTQATEPECMVPVVLGAKQLILVGDHCQLGPVVMCKKAAKAGLSQSLFERLVVLGIRPIRLQVQYRMHPALSAFPSNIFYEGSLQNGVTAADRVKKGFDFQWPQPDKPMFFYVTQGQEEIASSGTSYLNRTEAANVEKITTKLLKAGAKPDQIGIITPYEGQRSYLVQYMQFSGSLHTKLYQEVEIASVDAFQGREKDFIILSCVRANEHQGIGFLNDPRRLNVALTRARYGVIIVGNPKALSKQPLWNHLLNYYKEQKVLVEGPLNNLRESLMQFSKPRKLVNTINPGARFMTTAMYDAREAIIPGSVYDRSSQGRPSSMYFQTHDQIGMISAGPSHVAAMNIPIPFNLVMPPMPPPGYFGQANGPAAGRGTPKGKTGRGGRQKNRFGLPGPSQTNLPNSQASQDVASQPFSQGALTQGYISMSQPSQMSQPGLSQPELSQDSYLGDEFKSQIDVALSQDSTYQGERAYQHGGVTGLSQY
B3: UBXN4 (protein, UniProt Q92575 1-508)
chain: MLWFQGAIPAAIATAKRSGAVFVVFVAGDDEQSTQMAASWEDDKVTEASSNSFVAIKIDTKSEACLQFSQIYPVVCVPSSFFIGDSGIPLEVIAGSVSADELVTRIHKVRQMHLLKSETSVANGSQSESSVSTPSASFEPNNTCENSQSRNAELCEIPPTSDTKSDTATGGESAGHATSSQEPSGCSDQRPAEDLNIRVERLTKKLEERREEKRKEEEQREIKKEIERRKTGKEMLDYKRKQEEELTKRMLEERNREKAEDRAARERIKQQIALDRAERAARFAKTKEEVEAAKAAALLAKQAEMEVKRESYARERSTVARIQFRLPDGSSFTNQFPSDAPLEEARQFAAQTVGNTYGNFSLATMFPRREFTKEDYKKKLLDLELAPSASVVLLPAGRPTASIVHSSSGDIWTLLGTVLYPFLAIWRLISNFLFSNPPPTQTSVRVTSSEPPNPASSSKSEKREPVRKRVLEKRGDDFKKEGKIYRLRTQDDGEDENNTWNGNSTQQM
B4: MTDH (protein, UniProt Q86UE4 1-582)
chain: MAARSWQDELAQQAEEGSARLREMLSVGLGFLRTELGLDLGLEPKRYPGWVILVGTGALGLLLLFLLGYGWAAACAGARKKRRSPPRKREEAAAVPAAAPDDLALLKNLRSEEQKKKNRKKLSEKPKPNGRTVEVAEGEAVRTPQSVTAKQPPEIDKKNEKSKKNKKKSKSDAKAVQNSSRHDGKEVDEGAWETKISHREKRQQRKRDKVLTDSGSLDSTIPGIENTITVTTEQLTTASFPVGSKKNKGDSHLNVQVSNFKSGKGDSTLQVSSGLNENLTVNGGGWNEKSVKLSSQISAGEEKWNSVSPASAGKRKTEPSAWSQDTGDANTNGKDWGRSWSDRSIFSGIGSTAEPVSQSTTSDYQWDVSRNQPYIDDEWSGLNGLSSADPNSDWNAPAEEWGNWVDEERASLLKSQEPIPDDQKVSDDDKEKGEGALPTGKSKKKKKKKKKQGEDNSTAQDTEELEKEIREDLPVNTSKTRPKQEKAFSLKTISTSDPAEVLVKNSQPIKTLPPATSTEPSVILSKSDSDKSSSQVPPILQETDKSKSNTKQNSVPPSQTKSETSWESPKQIKKKKKARRET
B5: PDIA4 (protein, UniProt P13667 21-645)
chain: VAGAEGPDEDSSNRENAIEDEEEEEEEDDDEEEDDLEVKEENGVLVLNDANFDNFVADKDTVLLEFYAPWCGHCKQFAPEYEKIANILKDKDPPIPVAKIDATSASVLASRFDVSGYPTIKILKKGQAVDYEGSRTQEEIVAKVREVSQPDWTPPPEVTLVLTKENFDEVVNDADIILVEFYAPWCGHCKKLAPEYEKAAKELSKRSPPIPLAKVDATAETDLAKRFDVSGYPTLKIFRKGRPYDYNGPREKYGIVDYMIEQSGPPSKEILTLKQVQEFLKDGDDVIIIGVFKGESDPAYQQYQDAANNLREDYKFHHTFSTEIAKFLKVSQGQLVVMQPEKFQSKYEPRSHMMDVQGSTQDSAIKDFVLKYALPLVGHRKVSNDAKRYTRRPLVVVYYSVDFSFDYRAATQFWRSKVLEVAKDFPEYTFAIADEEDYAGEVKDLGLSESGEDVNAAILDESGKKFAMEPEEFDSDTLREFVTAFKKGKLKPVIKSQPVPKNNKGPVKVVVGKTFDSIVMDPKKDVLIEFYAPWCGHCKQLEPVYNSLAKKYKGQKGLVIAKMDATANDVPSDRYKVEGFPTIYFAPSGDKKNPVKFEGGDRDLEHLSKFIEEHATKLSRTKEEL
B6: HNRNPL (Heterogeneous nuclear ribonucleoprotein L) (protein, UniProt P14866 1-589)
chain: MSRRLLPRAEKRRRRLEQRQQPDEQRRRSGAMVKMAAAGGGGGGGRYYGGGSEGGRAPKRLKTDNAGDQHGGGGGGGGGAGAAGGGGGGENYDDPHKTPASPVVHIRGLIDGVVEADLVEALQEFGPISYVVVMPKKRQALVEFEDVLGACNAVNYAADNQIYIAGHPAFVNYSTSQKISRPGDSDDSRSVNSVLLFTILNPIYSITTDVLYTICNPCGPVQRIVIFRKNGVQAMVEFDSVQSAQRAKASLNGADIYSGCCTLKIEYAKPTRLNVFKNDQDTWDYTNPNLSGQGDPGSNPNKRQRQPPLLGDHPAEYGGPHGGYHSHYHDEGYGPPPPHYEGRRMGPPVGGHRRGPSRYGPQYGHPPPPPPPPEYGPHADSPVLMVYGLDQSKMNCDRVFNVFCLYGNVEKVKFMKSKPGAAMVEMADGYAVDRAITHLNNNFMFGQKLNVCVSKQPAIMPGQSYGLEDGSCSYKDFSESRNNRFSTPEQAAKNRIQHPSNVLHFFNAPLEVTEENFFEICDELGVKRPSSVKVFSGKSERSSSGLLEWESKSDALETLGFLNHYQMKNPNGPYPYTLKLCFSTAQHAS
B7: RPN1 (protein, UniProt P04843 24-607)
chain: ASSEAPPLINEDVKRTVDLSSHLAKVTAEVVLAHLGGGSTSRATSFLLALEPELEARLAHLGVQVKGEDEEENNLEVRETKIKGKSGRFFTVKLPVALDPGAKISVIVETVYTHVLHPYPTQITQSEKQFVVFEGNHYFYSPYPTKTQTMRVKLASRNVESYTKLGNPTRSEDLLDYGPFRDVPAYSQDTFKVHYENNSPFLTITSMTRVIEVSHWGNIAVEENVDLKHTGAVLKGPFSRYDYQRQPDSGISSIRSFKTILPAAAQDVYYRDEIGNVSTSHLLILDDSVEMEIRPRFPLFGGWKTHYIVGYNLPSYEYLYNLGDQYALKMRFVDHVFDEQVIDSLTVKIILPEGAKNIEIDSPYEISRAPDELHYTYLDTFGRPVIVAYKKNLVEQHIQDIVVHYTFNKVLMLQEPLLVVAAFYILFFTVIIYVRLDFSITKDPAAEARMKVACITEQVLTLVNKRIGLYRHFDETVNRYKQSRDISTLNSGKKSLETEHKALTSEIALLQSRLKTEGSDLCDRVSEMQKLDAQVKELVLKSAVEAERLVAGKLKKDTYIENEKLISGKRQELVTKIDHILDAL

Tests used:
[1] = target: IRE1-BirA* fusion protein (IRE1α with the biotin ligase BirA* and a Flag tag) (human) (UniProt O75460); test: proximity labelling
[2] = target: IRE1-BirA* fusion protein (IRE1α with the biotin ligase BirA* and a Flag tag) (human) (UniProt O75460); test: proximity labelling; remark: listed apart in the source

Molecule | binding [1] | binding [2]
COPB1 (from UniProt P53618 1-953) | binds | 
FLNA (from UniProt P21333 1-2647) | binds | 
G3BP1 (from UniProt Q13283 1-466) | binds | 
HSP90B1 (from UniProt P14625 22-803) | binds | 
HSPA8 (from UniProt P11142 1-646) | binds | 
STIM1 (from UniProt Q13586 23-685) | binds | 
VCP (from UniProt P55072 1-806) | binds | 
B1 |  | binds
B2 |  | binds
B3 |  | binds
B4 |  | binds
B5 |  | binds
B6 |  | binds
B7 |  | binds

Where two headings read alike, the source gives them in different places. These are yes or no findings as the source states them, for the method shown. In cells and extracts the contact can be indirect. A yes stands for co-enrichment or nearness to the bait. Other partners may have been found.
